Most values lie at the level of the controls, where differences are scatter.
Legend:
Assay in all cases: normalised response (% of control), CellTox Green; higher = less cell death (100 = DMSO, 0 = benzethonium chloride kill control)
Settings in all cases: incubation time: 72 h
BT-474 = test system: BT-474
Protocol: (§1)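 DSRT, 72 h incubation, CellTox Green / CellTiter-Glo readout. Signal is normalised to DMSO and benzethonium chloride controls. Value is the normalised response at dose 2.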

BT-549 = test system: BT-549
Protocol: as §1

CAL-120 = test system: CAL-120
Protocol: as §1

CAL-148 = test system: CAL-148
Protocol: as §1

CAL-51 = test system: CAL-51
Protocol: as §1

CAL-85-1 = test system: CAL-85-1
Protocol: as §1

DU-4475 = test system: DU-4475
Protocol: as §1

HCC1143 = test system: HCC1143
Protocol: as §1

HCC1599 = test system: HCC1599
Protocol: as §1

HCC1937 = test system: HCC1937
Protocol: as §1

HDQ-P1 = test system: HDQ-P1
Protocol: as §1

Hs578T = test system: Hs578T
Protocol: as §1

MCF-10A = test system: MCF-10A
Protocol: as §1

MDA-MB-231 = test system: MDA-MB-231
Protocol: as §1

MDA-MB-436 = test system: MDA-MB-436
Protocol: as §1

MDA-MB-453 = test system: MDA-MB-453
Protocol: as §1

MDA-MB-468 = test system: MDA-MB-468
Protocol: as §1

MFM-223 = test system: MFM-223
Protocol: as §1

COc1ccc(-c2ccc3c(N4CCOC[C@@H]4C)nc(N4CCOC[C@@H]4C)nc3n2)cc1CO [AZD8055] (10 nM)
normalised response (BT-474): 98% | normalised response (BT-549): 98.3% | normalised response (CAL-120): 101% | normalised response (CAL-148): 70.9% | normalised response (CAL-51): 77.2% | normalised response (CAL-85-1): 92.2% | normalised response (DU-4475): 92.1% | normalised response (HCC1143): 104% | normalised response (HCC1599): 98% | normalised response (HCC1937): 64% | normalised response (HDQ-P1): 115% | normalised response (Hs578T): 112% | normalised response (MCF-10A): 94.7% | normalised response (MDA-MB-231): 90.2% | normalised response (MDA-MB-436): 99.7% | normalised response (MDA-MB-453): 96.7% | normalised response (MDA-MB-468): 82.9% | normalised response (MFM-223): 93.4%

O=C(/C=C/c1cccnc1)NCCCCC1CCN(C(=O)c2ccccc2)CC1 [Daporinad] (1 nM)
normalised response (BT-474): 99% | normalised response (BT-549): 105% | normalised response (CAL-120): 94.7% | normalised response (CAL-148): 103% | normalised response (CAL-51): 106% | normalised response (CAL-85-1): 97.9% | normalised response (DU-4475): 102% | normalised response (HCC1143): 114% | normalised response (HCC1599): 98.2% | normalised response (HCC1937): 101% | normalised response (HDQ-P1): 95% | normalised response (Hs578T): 124% | normalised response (MCF-10A): 108% | normalised response (MDA-MB-231): 97.3% | normalised response (MDA-MB-436): 90.2% | normalised response (MDA-MB-453): 101% | normalised response (MDA-MB-468): 108% | normalised response (MFM-223): 98.6%

Cn1cc(C2=C(c3cn(C4CCN(Cc5ccccn5)CC4)c4ccccc34)C(=O)NC2=O)c2ccccc21 [Enzastaurin] (10 nM)
normalised response (BT-474): 102% | normalised response (BT-549): 90% | normalised response (CAL-120): 106% | normalised response (CAL-148): 101% | normalised response (CAL-85-1): 98.6% | normalised response (DU-4475): 114% | normalised response (HCC1143): 118% | normalised response (HCC1599): 112% | normalised response (HCC1937): 92.2% | normalised response (HDQ-P1): 122% | normalised response (Hs578T): 101% | normalised response (MCF-10A): 118% | normalised response (MDA-MB-231): 102% | normalised response (MDA-MB-436): 106% | normalised response (MDA-MB-453): 105% | normalised response (MDA-MB-468): 98.7% | normalised response (MFM-223): 83.2%

NC(=O)c1ccc(I)c([N+](=O)[O-])c1 [Iniparib] (10 nM)
normalised response (BT-474): 97% | normalised response (BT-549): 93.2% | normalised response (CAL-120): 99.6% | normalised response (CAL-148): 64.7% | normalised response (CAL-51): 52.7% | normalised response (CAL-85-1): 101% | normalised response (DU-4475): 89.7% | normalised response (HCC1143): 102% | normalised response (HCC1599): 89.5% | normalised response (HCC1937): 68.4% | normalised response (HDQ-P1): 84.2% | normalised response (Hs578T): 95.4% | normalised response (MCF-10A): 100% | normalised response (MDA-MB-231): 66.1% | normalised response (MDA-MB-436): 83.4% | normalised response (MDA-MB-453): 98% | normalised response (MDA-MB-468): 108% | normalised response (MFM-223): 97.8%

N#Cc1ccc(C(c2ccc(C#N)cc2)n2cncn2)cc1 [Letrozole] (10 nM)
normalised response (BT-474): 101% | normalised response (BT-549): 95.3% | normalised response (CAL-120): 97.5% | normalised response (CAL-148): 50.4% | normalised response (CAL-51): 112% | normalised response (CAL-85-1): 100% | normalised response (DU-4475): 97.2% | normalised response (HCC1143): 105% | normalised response (HCC1599): 100% | normalised response (HCC1937): 101% | normalised response (HDQ-P1): 105% | normalised response (Hs578T): 111% | normalised response (MCF-10A): 99.3% | normalised response (MDA-MB-231): 102% | normalised response (MDA-MB-436): 87.5% | normalised response (MDA-MB-453): 62.6% | normalised response (MDA-MB-468): 120% | normalised response (MFM-223): 98%

CN(Cc1cnc2nc(N)nc(N)c2n1)c1ccc(C(=O)N[C@@H](CCC(=O)O)C(=O)O)cc1 [Methotrexate] (50 nM)
normalised response (BT-474): 101% | normalised response (BT-549): 105% | normalised response (CAL-120): 99.1% | normalised response (CAL-148): 102% | normalised response (CAL-51): 110% | normalised response (CAL-85-1): 97.3% | normalised response (DU-4475): 102% | normalised response (HCC1143): 112% | normalised response (HCC1599): 105% | normalised response (HCC1937): 97.9% | normalised response (HDQ-P1): 116% | normalised response (Hs578T): 114% | normalised response (MCF-10A): 75.8% | normalised response (MDA-MB-231): 106% | normalised response (MDA-MB-436): 98.2% | normalised response (MDA-MB-453): 99.5% | normalised response (MDA-MB-468): 107% | normalised response (MFM-223): 102%

O=C(CCBr)N1CCN(C(=O)CCBr)CC1 [Pipobroman] (10 nM)
normalised response (BT-474): 101% | normalised response (BT-549): 91% | normalised response (CAL-120): 98.1% | normalised response (CAL-148): 93.7% | normalised response (CAL-51): 83.9% | normalised response (CAL-85-1): 101% | normalised response (DU-4475): 96.1% | normalised response (HCC1599): 94.8% | normalised response (HCC1937): 99.7% | normalised response (HDQ-P1): 114% | normalised response (Hs578T): 124% | normalised response (MCF-10A): 108% | normalised response (MDA-MB-231): 110% | normalised response (MDA-MB-436): 96.8% | normalised response (MDA-MB-453): 97.7% | normalised response (MDA-MB-468): 81.5% | normalised response (MFM-223): 102%

CNC(=O)c1cc(Oc2ccc(NC(=O)Nc3cc(C(C)(C)C)nn3-c3ccc4ncccc4c3)c(F)c2)ccn1 [Rebastinib] (1 nM)
normalised response (BT-474): 102% | normalised response (BT-549): 95.8% | normalised response (CAL-120): 98.4% | normalised response (CAL-148): 110% | normalised response (CAL-51): 109% | normalised response (CAL-85-1): 106% | normalised response (DU-4475): 97.4% | normalised response (HCC1143): 110% | normalised response (HCC1599): 103% | normalised response (HDQ-P1): 114% | normalised response (Hs578T): 88.5% | normalised response (MCF-10A): 94.4% | normalised response (MDA-MB-231): 107% | normalised response (MDA-MB-436): 100% | normalised response (MDA-MB-453): 100% | normalised response (MDA-MB-468): 87.8% | normalised response (MFM-223): 104%

S=P(N1CC1)(N1CC1)N1CC1 [Thio-TEPA] (50 nM)
normalised response (BT-474): 100% | normalised response (BT-549): 97.3% | normalised response (CAL-120): 90.4% | normalised response (CAL-51): 78.7% | normalised response (CAL-85-1): 95.8% | normalised response (DU-4475): 96.6% | normalised response (HCC1599): 94% | normalised response (HCC1937): 109% | normalised response (HDQ-P1): 117% | normalised response (Hs578T): 115% | normalised response (MCF-10A): 102% | normalised response (MDA-MB-231): 83.3% | normalised response (MDA-MB-436): 96.1% | normalised response (MDA-MB-453): 100% | normalised response (MDA-MB-468): 96% | normalised response (MFM-223): 102%

CC(C)C[C@@H](C(=O)N[C@H](C(=O)OC1CCCC1)c1ccccc1)[C@H](O)C(=O)NO [Tosedostat] (10 nM)
normalised response (BT-474): 103% | normalised response (BT-549): 97.8% | normalised response (CAL-120): 96.9% | normalised response (CAL-51): 99.3% | normalised response (CAL-85-1): 85.6% | normalised response (DU-4475): 101% | normalised response (HCC1143): 100% | normalised response (HCC1599): 105% | normalised response (HCC1937): 116% | normalised response (HDQ-P1): 112% | normalised response (Hs578T): 122% | normalised response (MCF-10A): 87.5% | normalised response (MDA-MB-231): 87% | normalised response (MDA-MB-436): 84.2% | normalised response (MDA-MB-453): 90.9% | normalised response (MDA-MB-468): 75.6%
